Publication PMC3460870
Residue numbers refer to the chain shown, from its start. Results are given in words; binding and its absence hold for the method and conditions named. In cells and extracts the contact can be indirect. Some entries that bind do so weakly or less than the wild type. For some of these results: Sequences can lack the tags named with a protein.

Chains of the proteins cited; added tags and fusions are not shown.
UniProt P04406: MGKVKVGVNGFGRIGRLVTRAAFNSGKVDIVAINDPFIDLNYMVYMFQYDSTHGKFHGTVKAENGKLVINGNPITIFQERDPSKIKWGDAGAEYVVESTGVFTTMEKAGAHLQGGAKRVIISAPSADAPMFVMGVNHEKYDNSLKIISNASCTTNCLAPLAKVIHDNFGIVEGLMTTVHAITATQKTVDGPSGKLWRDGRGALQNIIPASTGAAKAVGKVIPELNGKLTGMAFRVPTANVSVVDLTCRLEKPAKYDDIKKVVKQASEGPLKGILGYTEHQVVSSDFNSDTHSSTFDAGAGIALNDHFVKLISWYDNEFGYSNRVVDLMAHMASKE

How the values were obtained:
[1] = molecular target: T1, endogenous Vangl2 (human (endogenous in SKBR7)) (UniProt Q9ULK5); assay: co-IP; 2G4 mAb immunoprecipitation from SKBR7 cell lysates, 16% SDS-PAGE, blot with anti-GAPDH antibody (Figure S5)
T1 sequence: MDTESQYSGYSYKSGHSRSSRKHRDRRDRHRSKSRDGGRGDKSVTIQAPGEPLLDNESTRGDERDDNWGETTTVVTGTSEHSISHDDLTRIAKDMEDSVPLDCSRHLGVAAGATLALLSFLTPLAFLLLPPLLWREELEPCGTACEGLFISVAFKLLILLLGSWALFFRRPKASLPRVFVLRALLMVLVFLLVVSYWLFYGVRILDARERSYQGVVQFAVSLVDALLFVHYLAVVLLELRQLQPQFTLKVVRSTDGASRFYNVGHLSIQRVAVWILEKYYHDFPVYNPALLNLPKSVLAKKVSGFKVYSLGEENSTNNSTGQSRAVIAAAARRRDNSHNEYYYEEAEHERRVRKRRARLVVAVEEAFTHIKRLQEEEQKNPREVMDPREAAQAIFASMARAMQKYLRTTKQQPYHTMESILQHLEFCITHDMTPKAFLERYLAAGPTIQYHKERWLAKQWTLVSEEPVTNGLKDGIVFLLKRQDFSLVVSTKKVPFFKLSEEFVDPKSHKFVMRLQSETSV

GFP-Vangl2 (mouse) [2] = molecular target: T2, GFP-Vangl2 (mouse) (UniProt Q91ZD4); assay: co-IP; Vangl2 with two different tags (GFP or myc) co-expressed in T47D cells; immunoprecipitation with anti-GFP antibody and western blot with anti-myc antibody (the legend says immunoprecipitation with Myc antibody)
T2 sequence: T1 sequence with G38S, T114I, V194I

myc-Vangl1 = molecular target: T3, myc-Vangl1 (UniProt Q80Z96); assay: co-IP; myc-Vangl1 co-expressed with GFP-Vangl2, its truncations or GFP in T47D cells; immunoprecipitation with anti-myc antibody, western blot
T3 sequence: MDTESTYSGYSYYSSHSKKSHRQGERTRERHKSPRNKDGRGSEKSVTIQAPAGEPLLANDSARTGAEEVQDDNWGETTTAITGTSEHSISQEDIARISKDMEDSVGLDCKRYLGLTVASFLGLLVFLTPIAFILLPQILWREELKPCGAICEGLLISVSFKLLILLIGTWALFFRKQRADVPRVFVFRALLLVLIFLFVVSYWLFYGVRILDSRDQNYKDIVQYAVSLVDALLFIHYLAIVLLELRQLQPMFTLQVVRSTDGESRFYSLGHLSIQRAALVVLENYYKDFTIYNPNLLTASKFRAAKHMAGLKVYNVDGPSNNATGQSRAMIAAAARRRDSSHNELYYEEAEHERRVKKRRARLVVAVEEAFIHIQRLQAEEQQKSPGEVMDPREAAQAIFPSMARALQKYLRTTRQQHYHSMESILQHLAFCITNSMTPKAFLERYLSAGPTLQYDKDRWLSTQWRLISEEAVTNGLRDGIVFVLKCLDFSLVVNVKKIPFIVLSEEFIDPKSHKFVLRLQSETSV

GFP-Vangl2 (mouse) [3] = molecular target: T2, GFP-Vangl2 (mouse); assay: co-IP; myc-Vangl1 co-expressed with GFP-Vangl2 in T47D cells; immunoprecipitation with 2G4 mAb (Figure S8)

In the case of GAPDH (from UniProt P04406 1-335), the binding [1] is reported as “no binding”.

B1: GFP-Vangl2 (protein, UniProt Q91ZD4 1-521)
chain: T1 sequence with G38S, T114I, V194I
For B1, the binding (GFP-Vangl2 (mouse) [2]) was “binds” and the binding (myc-Vangl1) was “binds”.

B2: myc-Vangl1 (protein, UniProt Q80Z96 1-526)
chain: T3 sequence
For B2, the binding (GFP-Vangl2 (mouse) [3]) was “binds”.
